Data taken from paper PMC6915327.
Changes are numbered by the printed parent chain. Names may count otherwise. These are yes or no findings as the source states them, for the method shown. Binding seen in cells or lysates may run through a third protein. Some binding calls cover weakened binding; strength is not graded here. Where a sequence is shown, tags or fusion partners need not be part of it.

Chains of the proteins cited; added tags and fusions are not shown.
UniProt Q8N122: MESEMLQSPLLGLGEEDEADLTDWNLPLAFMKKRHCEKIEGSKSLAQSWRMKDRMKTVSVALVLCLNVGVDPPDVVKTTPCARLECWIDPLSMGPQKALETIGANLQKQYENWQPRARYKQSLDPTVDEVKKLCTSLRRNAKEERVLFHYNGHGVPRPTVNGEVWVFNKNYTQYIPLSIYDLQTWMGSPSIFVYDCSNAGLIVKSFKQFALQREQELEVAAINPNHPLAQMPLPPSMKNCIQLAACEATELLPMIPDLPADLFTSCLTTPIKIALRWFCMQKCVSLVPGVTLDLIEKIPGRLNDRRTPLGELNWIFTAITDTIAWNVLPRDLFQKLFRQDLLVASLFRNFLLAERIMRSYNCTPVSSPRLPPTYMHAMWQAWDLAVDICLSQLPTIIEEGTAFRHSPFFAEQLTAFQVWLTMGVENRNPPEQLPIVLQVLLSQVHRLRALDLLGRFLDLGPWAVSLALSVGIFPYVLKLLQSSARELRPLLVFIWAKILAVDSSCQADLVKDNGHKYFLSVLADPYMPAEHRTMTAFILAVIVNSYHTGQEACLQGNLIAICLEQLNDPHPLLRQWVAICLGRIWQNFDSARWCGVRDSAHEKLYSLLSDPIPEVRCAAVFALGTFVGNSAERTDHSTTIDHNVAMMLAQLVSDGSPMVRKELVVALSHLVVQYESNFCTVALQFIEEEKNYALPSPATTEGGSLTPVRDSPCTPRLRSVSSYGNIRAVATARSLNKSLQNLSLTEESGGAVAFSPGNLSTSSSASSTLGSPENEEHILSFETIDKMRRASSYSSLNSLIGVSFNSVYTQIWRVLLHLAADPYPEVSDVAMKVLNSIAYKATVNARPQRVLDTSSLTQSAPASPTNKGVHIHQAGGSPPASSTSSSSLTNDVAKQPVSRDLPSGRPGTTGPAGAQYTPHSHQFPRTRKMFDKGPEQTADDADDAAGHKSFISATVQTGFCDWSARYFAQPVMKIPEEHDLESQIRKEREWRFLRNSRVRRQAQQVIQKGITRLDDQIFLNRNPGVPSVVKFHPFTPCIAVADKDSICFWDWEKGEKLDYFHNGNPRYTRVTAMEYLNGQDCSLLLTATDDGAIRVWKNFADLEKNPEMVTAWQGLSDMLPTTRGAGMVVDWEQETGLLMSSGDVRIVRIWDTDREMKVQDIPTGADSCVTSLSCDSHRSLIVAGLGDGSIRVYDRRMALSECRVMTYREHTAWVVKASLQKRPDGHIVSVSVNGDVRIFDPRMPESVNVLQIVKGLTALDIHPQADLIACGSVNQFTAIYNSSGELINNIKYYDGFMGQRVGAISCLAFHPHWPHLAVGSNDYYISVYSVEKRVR
UniProt Q13620: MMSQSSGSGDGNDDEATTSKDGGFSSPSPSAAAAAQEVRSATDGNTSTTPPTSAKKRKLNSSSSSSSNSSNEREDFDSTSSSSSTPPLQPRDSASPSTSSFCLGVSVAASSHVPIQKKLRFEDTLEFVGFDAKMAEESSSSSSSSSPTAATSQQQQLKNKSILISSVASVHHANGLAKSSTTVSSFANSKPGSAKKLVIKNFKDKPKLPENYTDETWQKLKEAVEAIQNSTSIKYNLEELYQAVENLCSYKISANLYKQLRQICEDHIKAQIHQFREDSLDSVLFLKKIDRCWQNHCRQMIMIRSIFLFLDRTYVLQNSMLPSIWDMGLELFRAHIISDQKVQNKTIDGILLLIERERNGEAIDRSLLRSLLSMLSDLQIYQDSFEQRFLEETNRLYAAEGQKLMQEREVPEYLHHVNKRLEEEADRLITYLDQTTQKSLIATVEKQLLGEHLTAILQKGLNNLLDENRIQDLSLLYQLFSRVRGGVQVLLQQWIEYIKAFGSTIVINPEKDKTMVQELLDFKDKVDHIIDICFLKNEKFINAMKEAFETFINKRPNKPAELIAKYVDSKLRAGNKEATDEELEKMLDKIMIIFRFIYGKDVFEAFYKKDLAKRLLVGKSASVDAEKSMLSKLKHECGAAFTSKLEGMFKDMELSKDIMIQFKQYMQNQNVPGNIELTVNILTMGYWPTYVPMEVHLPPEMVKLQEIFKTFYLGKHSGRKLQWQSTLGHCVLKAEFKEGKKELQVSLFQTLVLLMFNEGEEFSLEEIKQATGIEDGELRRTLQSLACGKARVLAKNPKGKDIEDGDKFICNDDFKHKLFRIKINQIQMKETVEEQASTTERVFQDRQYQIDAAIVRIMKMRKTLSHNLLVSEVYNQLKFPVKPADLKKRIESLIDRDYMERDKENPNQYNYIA
UniProt Q16531: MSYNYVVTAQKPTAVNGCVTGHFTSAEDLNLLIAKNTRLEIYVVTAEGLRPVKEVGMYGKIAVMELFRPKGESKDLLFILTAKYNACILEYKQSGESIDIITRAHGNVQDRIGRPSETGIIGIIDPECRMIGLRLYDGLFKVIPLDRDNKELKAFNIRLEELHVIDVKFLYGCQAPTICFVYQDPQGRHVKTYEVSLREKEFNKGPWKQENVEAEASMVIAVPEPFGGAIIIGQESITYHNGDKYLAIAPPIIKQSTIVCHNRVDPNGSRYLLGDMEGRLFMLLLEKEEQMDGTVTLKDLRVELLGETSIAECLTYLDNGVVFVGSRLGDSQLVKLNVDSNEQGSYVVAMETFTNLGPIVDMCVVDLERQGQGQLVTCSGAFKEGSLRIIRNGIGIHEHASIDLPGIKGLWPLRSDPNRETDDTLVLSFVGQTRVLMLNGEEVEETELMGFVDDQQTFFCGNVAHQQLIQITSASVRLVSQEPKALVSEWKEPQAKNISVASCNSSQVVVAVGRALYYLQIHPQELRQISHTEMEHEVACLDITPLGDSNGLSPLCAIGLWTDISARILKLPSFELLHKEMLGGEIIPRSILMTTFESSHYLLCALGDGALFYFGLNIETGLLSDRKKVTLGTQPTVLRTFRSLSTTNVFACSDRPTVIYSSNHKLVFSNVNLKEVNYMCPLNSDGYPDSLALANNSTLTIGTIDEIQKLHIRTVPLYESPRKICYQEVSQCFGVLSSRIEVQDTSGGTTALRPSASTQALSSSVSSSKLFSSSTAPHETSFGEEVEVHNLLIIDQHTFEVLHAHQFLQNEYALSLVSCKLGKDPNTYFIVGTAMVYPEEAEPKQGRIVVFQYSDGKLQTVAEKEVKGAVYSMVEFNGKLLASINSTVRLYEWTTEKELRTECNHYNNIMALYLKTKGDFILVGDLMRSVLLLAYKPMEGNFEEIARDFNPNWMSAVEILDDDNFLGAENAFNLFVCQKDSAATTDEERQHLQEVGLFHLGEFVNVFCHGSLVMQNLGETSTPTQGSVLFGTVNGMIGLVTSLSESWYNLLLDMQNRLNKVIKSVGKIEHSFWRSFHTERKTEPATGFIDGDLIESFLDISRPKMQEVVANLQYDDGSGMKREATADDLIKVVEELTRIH

B1: 2D HA-tagged 4E-BP2 (N99D/N102D) (protein, UniProt Q13542 1-120)
chain: MSSSAGSGHQPSQSRAIPTRTVAISDAAQLPHDYCTTPGGTLFSTTPGGTRIIYDRKFLLDRRNSPMAQTPPCHLPNIPGVTSPGTLIEDSKVEVNNLDNLDNHDRKHAVGDDAQFEMDI
B2: WT HA-tagged 4E-BP2 (protein, UniProt Q13542 1-120)
chain: B1 chain with D99N, D102N

These molecules were tested against myc-tagged full-length Raptor (UniProt Q8N122) (assay: co-IP; anti-myc (9E10) immunoprecipitation on protein G agarose from HEK293H lysates co-transfected with myc-Raptor and HA-4E-BP2 WT or 2D; lysis buffer 50 mM HEPES pH 7.5, 1% CHAPS, 150 mM NaCl; 4°C; immunoblot).

binding | Molecule
binds | Cullin 4B (CUL4B) (from UniProt Q13620 1-913)
binds | DNA damage-binding protein 1 (DDB1) (from UniProt Q16531 1-1140)
binds | B1
binds | B2
